Results are given in words; binding and its absence hold for the method and conditions named. A result given as binding can be weak or reduced; the word gives no strength.
Target: human GHRHR splice variant 1 (SV1), cryo-EM construct SV1-15AA-LgBiT (human)
Experiment: cryo-EM structure; GHRH–SV1–Gs–Nb35 complex; SV1-15AA-LgBiT, Gαs, Gβ1-15AA-peptide 86 and Gγ2 co-expressed in Sf9; complex formed in the cell lysate with 10 μg/mL Nb35, apyrase and 20 μM GHRH, solubilised in LMNG/CHS, purified on amylose resin, TEV cleavage and Superdex 200; NanoBiT tether between SV1 and Gβ1; global resolution 3.3 Å; both purified

binding: binds
Binder: YADAIFTNSYRKVLGQLSARKLLQDIMSRQQGESNQERGARARL (peptide, UniProt P01286 32-75) [growth hormone-releasing hormone (GHRH)]
